# In the supplement of paper PMC4604168 (melanoma cell lines):
# Some of the results follow. Many values rest on one well or one pass, so single values are uncertain.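 Imaging used 1,536-well plates; nuclei positive for cleaved PARP by antibody were divided by total DNA-stained nuclei to yield the apoptosis fraction. Doses for screening kept most cells viable, and cell lines differ markedly in resting and induced cleaved-PARP levels.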
# Legend:
# Assay in all cases: cleaved PARP positive nuclei fraction relative to DMSO control; melanoma cells; higher = more apoptosis
# Conditions in all cases: library dose: low library concentration; 72 h
# 501Mel = tested on: 501Mel
# A101D = tested on: A101D
# A2058 = tested on: A2058
# A375 = tested on: A375
# C32 = tested on: C32
# CBRC008 = tested on: CBRC008 (line from a melanoma biopsy)
# CBRC014 = tested on: CBRC014 (line from a melanoma biopsy)
# CBRC016 = tested on: CBRC016 (line from a melanoma biopsy)
# CBRC017 = tested on: CBRC017 (line from a melanoma biopsy)
# CBRC034 = tested on: CBRC034 (line from a melanoma biopsy)
# COLO792 = tested on: COLO792
# COLO800 = tested on: COLO800
# COLO829 = tested on: COLO829
# G361 = tested on: G361
# IPC-298 = tested on: IPC-298
# IST-MEL1 = tested on: IST-MEL1
# LB2518-MEL = tested on: LB2518-MEL
# LOXIMVI = tested on: LOXIMVI
# MEL-HO = tested on: MEL-HO
Structure (SMILES),cleaved PARP positive nuclei fraction (501Mel) [%],cleaved PARP positive nuclei fraction (A101D) [%],cleaved PARP positive nuclei fraction (A2058) [%],cleaved PARP positive nuclei fraction (A375) [%],cleaved PARP positive nuclei fraction (C32) [%],cleaved PARP positive nuclei fraction (CBRC008) [%],cleaved PARP positive nuclei fraction (CBRC014) [%],cleaved PARP positive nuclei fraction (CBRC016) [%],cleaved PARP positive nuclei fraction (CBRC017) [%],cleaved PARP positive nuclei fraction (CBRC034) [%],cleaved PARP positive nuclei fraction (COLO792) [%],cleaved PARP positive nuclei fraction (COLO800) [%],cleaved PARP positive nuclei fraction (COLO829) [%],cleaved PARP positive nuclei fraction (G361) [%],cleaved PARP positive nuclei fraction (IPC-298) [%],cleaved PARP positive nuclei fraction (IST-MEL1) [%],cleaved PARP positive nuclei fraction (LB2518-MEL) [%],cleaved PARP positive nuclei fraction (LOXIMVI) [%],cleaved PARP positive nuclei fraction (MEL-HO) [%]
"Cn1sc(=O)n(Cc2ccccc2)c1=O + Cc1nc(Nc2ncc(C(=O)Nc3c(C)cccc3Cl)s2)cc(N2CCN(CCO)CC2)n1 [dasatanib] (first compound 0.4 µM, partner dose 0.004 µM)",63.9,102,87.6,129,91.9,45.3,93.5,116,82.2,34.3,85.3,66.3,179,37.5,128,82.6,54.6,158,39.6
"CN(c1ncccc1CNc1nc(Nc2ccc3c(c2)CC(=O)N3)ncc1C(F)(F)F)S(C)(=O)=O + C=C(c1ccc(C(=O)O)cc1)c1cc2c(cc1C)C(C)(C)CCC2(C)C [Bexarotene] (first compound 0.08 µM, partner dose 2 µM)",61,88.9,138,249,98.4,110,105,50.6,118,259,168,188,272,153,94.2,131,118,108,79.6
"C[C@@H](N)c1ccc(C(=O)Nc2ccnc3[nH]ccc23)cc1 + C#Cc1cccc(Nc2ncnc3cc(OCCOC)c(OCCOC)cc23)c1 [erlotinib] (first compound 0.4 µM, partner dose 0.8 µM)",103,57.6,57.2,97.9,334,52.5,125,208,100,143,111,74.3,130,91.2,45.8,67.5,106,120,113
"CC1(C)CCC(c2ccc(Cl)cc2)=C(CN2CCN(c3ccc(C(=O)NS(=O)(=O)c4ccc(N[C@H](CCN5CCOCC5)CSc5ccccc5)c(S(=O)(=O)C(F)(F)F)c4)cc3)CC2)C1 + CN1CCN(c2ccc3nc(-c4c(N)c5c(F)cccc5[nH]c4=O)[nH]c3c2)CC1 [Dovitinib] (first compound 0.4 µM, partner dose 0.1 µM)",173,285,255,272,244,529,785,824,218,66.9,435,96.5,201,181,136,194,65.4,442,49.3
"CCN(CC)CCNC(=O)c1c(C)[nH]c(/C=C2\C(=O)Nc3ccc(F)cc32)c1C [sunitinib] + CCCCCCCCc1ccc(CCC(N)(CO)CO)cc1 [fingolimod] (first compound 0.4 µM, partner dose 2 µM)",106,148,74.6,173,87.8,44.6,108,64.6,102,69.8,154,136,172,91.9,42.8,31.2,48.9,45.4,32.1
"CS(=O)(=O)c1ccc(C(=O)Nc2ccc(Cl)c(-c3ccccn3)c2)c(Cl)c1 [vismodegib] + Cn1nnc2c(C(N)=O)ncn2c1=O [temozolomide] (first compound 1 µM, partner dose 2 µM)",88.8,51.4,183,122,68.6,86,104,179,80.5,107,91.1,73.4,233,38.1,94.9,134,105,30.7,97.6
"CCCCCCCCc1ccc(CCC(N)(CO)CO)cc1 [fingolimod] + CC(=O)O[C@@]12CO[C@@H]1C[C@H](O)[C@@]1(C)C(=O)[C@H](O)C3=C(C)[C@@H](OC(=O)[C@H](O)[C@@H](NC(=O)OC(C)(C)C)c4ccccc4)C[C@@](O)([C@@H](OC(=O)c4ccccc4)[C@H]21)C3(C)C [Docetaxel] (first compound 2 µM, partner dose 0.0001 µM)",408,122,743,1060,86.4,168,116,235,175,108,391,346,135,541,272,156,236,160,131
"Cn1sc(=O)n(Cc2ccccc2)c1=O + COc1ccc(C2=N[C@@H](c3ccc(Cl)cc3)[C@@H](c3ccc(Cl)cc3)N2C(=O)N2CCNC(=O)C2)c(OC(C)C)c1 [Nutlin-3] (first compound 0.4 µM, partner dose 0.1 µM)",68.8,148,208,44,70.3,63.3,110,147,142,170,85.9,93.9,128,47.9,175,33.2,129,127,143
"CS(=O)(=O)c1ccc(C(=O)Nc2ccc(Cl)c(-c3ccccn3)c2)c(Cl)c1 [vismodegib] + CN1CCN(c2ccc3nc(-c4c(N)c5c(F)cccc5[nH]c4=O)[nH]c3c2)CC1 [Dovitinib] (first compound 1 µM, partner dose 0.1 µM)",102,84.2,278,131,77.4,61,106,401,117,79.7,27.5,83.1,73.9,226,118,31.1,115,118,157
"CCN(CC)CCNC(=O)c1c(C)[nH]c(/C=C2\C(=O)Nc3ccc(F)cc32)c1C [sunitinib] + COCC[n+]1c2c(n(Cc3cnccn3)c1C)C(=O)c1ccccc1C2=O [YM155] (first compound 0.4 µM, partner dose 0.0004 µM)",77.4,159,93.8,157,95.2,93.4,182,166,96.5,112,41.2,71.8,85.4,95.3,83.6,133,108,154,150
"C[C@@H](N)c1ccc(C(=O)Nc2ccnc3[nH]ccc23)cc1 + NC(=O)c1ccc(N(C(N)=O)c2c(F)cccc2F)nc1-c1ccc(F)cc1F [VX702] (first compound 0.4 µM, partner dose 0.4 µM)",98.5,86.6,77.4,149,77.2,57.2,103,168,129,164,151,126,117,163,220,64.2,83.5,114,80.2
"CS(=O)(=O)c1ccc(C(=O)Nc2ccc(Cl)c(-c3ccccn3)c2)c(Cl)c1 [vismodegib] + C=C(c1ccc(C(=O)O)cc1)c1cc2c(cc1C)C(C)(C)CCC2(C)C [Bexarotene] (first compound 1 µM, partner dose 2 µM)",109,116,123,51.5,125,73.3,84.7,146,125,158,83.7,43.7,48.5,57.2,41.5,193,55.6,79.3,110
"CS(=O)(=O)c1ccc(C(=O)Nc2ccc(Cl)c(-c3ccccn3)c2)c(Cl)c1 [vismodegib] + Nc1cccc2c1CN(C1CCC(=O)NC1=O)C2=O [lenalidomide] (first compound 1 µM, partner dose 1 µM)",99.5,75,120,172,74.8,170,107,44.6,98.5,94.5,65.6,89.9,31.6,83.9,46.7,252,38.9,178,55.3
"NC(=O)c1ccc(N(C(N)=O)c2c(F)cccc2F)nc1-c1ccc(F)cc1F + CCCS(=O)(=O)Nc1ccc(F)c(C(=O)c2c[nH]c3ncc(Cl)cc23)c1F [PLX4720] (first compound 0.4 µM, partner dose 0.08 µM)",54.8,146,144,207,78.8,35.1,105,60.4,122,58.3,121,96.1,95.1,120,92.3,90,101,116,181
"CCCCCCCCc1ccc(CCC(N)(CO)CO)cc1 [fingolimod] + NC1(c2ccc(-c3nc4ccn5c(=O)[nH]nc5c4cc3-c3ccccc3)cc2)CCC1 [MK2206] (first compound 2 µM, partner dose 0.4 µM)",86.7,123,92.3,486,78,129,77.7,92.3,144,78.6,118,156,60.5,97.1,186,68.3,122,110,140
"C[C@@H](N)c1ccc(C(=O)Nc2ccnc3[nH]ccc23)cc1 + CS(=O)(=O)c1ccc(C(=O)Nc2ccc(Cl)c(-c3ccccn3)c2)c(Cl)c1 [vismodegib] (first compound 0.4 µM, partner dose 1 µM)",84.6,120,300,198,91.9,107,133,1160,120,346,110,44.2,75,76.6,437,63,112,63.1,373

# A run of entries taken from the entries so far:
Structure (SMILES),cleaved PARP positive nuclei fraction (501Mel) [%],cleaved PARP positive nuclei fraction (A101D) [%],cleaved PARP positive nuclei fraction (A2058) [%],cleaved PARP positive nuclei fraction (A375) [%],cleaved PARP positive nuclei fraction (C32) [%],cleaved PARP positive nuclei fraction (CBRC008) [%],cleaved PARP positive nuclei fraction (CBRC014) [%],cleaved PARP positive nuclei fraction (CBRC016) [%],cleaved PARP positive nuclei fraction (CBRC017) [%],cleaved PARP positive nuclei fraction (CBRC034) [%],cleaved PARP positive nuclei fraction (COLO792) [%],cleaved PARP positive nuclei fraction (COLO800) [%],cleaved PARP positive nuclei fraction (COLO829) [%],cleaved PARP positive nuclei fraction (G361) [%],cleaved PARP positive nuclei fraction (IPC-298) [%],cleaved PARP positive nuclei fraction (IST-MEL1) [%],cleaved PARP positive nuclei fraction (LB2518-MEL) [%],cleaved PARP positive nuclei fraction (LOXIMVI) [%],cleaved PARP positive nuclei fraction (MEL-HO) [%]
"C[C@@H](N)c1ccc(C(=O)Nc2ccnc3[nH]ccc23)cc1 + NC(=O)c1ccc(N(C(N)=O)c2c(F)cccc2F)nc1-c1ccc(F)cc1F [VX702] (first compound 0.4 µM, partner dose 0.4 µM)",98.5,86.6,77.4,149,77.2,57.2,103,168,129,164,151,126,117,163,220,64.2,83.5,114,80.2
"CS(=O)(=O)c1ccc(C(=O)Nc2ccc(Cl)c(-c3ccccn3)c2)c(Cl)c1 [vismodegib] + C=C(c1ccc(C(=O)O)cc1)c1cc2c(cc1C)C(C)(C)CCC2(C)C [Bexarotene] (first compound 1 µM, partner dose 2 µM)",109,116,123,51.5,125,73.3,84.7,146,125,158,83.7,43.7,48.5,57.2,41.5,193,55.6,79.3,110
